Experimental data: PubChem BioAssay AID2685 (National Center for Advancing Translational Sciences (NCATS), 2010)
About 2,100 (0.66%) of roughly 320,000 compounds were called active. The shares of active, inactive and inconclusive entries below differ from those in the screen. Calls come from the whole dose curve; as a rule, active = well fitted inhibition curve with a large enough effect in the signal ratio, with a control signal flat (not every such curve was filed as active); inconclusive = small, poorly fitted or top-dose-only effect, or effect the other way, or a change in a side signal; inactive = flat fitted curve, though single readings scatter; the % refers to the signal ratio. Potencies beside an inconclusive call are fits to weak or partial responses and may not hold up.

Assay: qHTS Assay for Lipid Storage Modulators in Drosophila S3 Cells
Details: BODIPY lipid droplet fluorescence, 18-24 h, cells fed with added oleic acid; lipid storage change, negative = inhibition: at 46.1 µM (top of the series) unless noted
Outline: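 Laser-scanning cytometry quantifies lipid droplet accumulation (500–530 nm total intensity; droplet/cell object ratio) in oleic acid-fed (400 uM added) Drosophila S3 cells treated with a concentration series. 20 uM Triacsin C defined 100% inhibition.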
% is set by controls: 0 for no effect and ±100 for the full control effect; potency is the fitted concentration of half-maximal effect.

| SMILES | lipid storage change, negative = inhibition | Potency |
| --- | --- | --- |
| O=S(=O)(c1ccc(Cl)cc1)c1snnc1-c1ccccc1 | inconclusive: -55.4% | – |
| COc1ccc(-n2nc(C(=O)NCC(=O)NCc3cccc(F)c3)c3ccccc3c2=O)cc1Cl | inconclusive: 14.7% | – |
| CCC(=O)N1c2ccccc2-c2nnc(SC)nc2OC1c1ccc(OC)c(OC)c1 (stereo not given) | – | inconclusive: 25.9 nM [activator, full curve] |
| Fc1cccc(NC(=S)Nc2ccc(Br)cc2)c1 | – | inconclusive: 23100 nM [falling, single point] |
| COc1ccc(C(=O)NNC(=O)CSc2nnc(-c3ccc(O)cc3)n2C)cc1 | inconclusive: -1.22% | – |
| Fc1ccc(NC(=S)Nc2cccc3ccccc23)cc1F | inconclusive: 9.12% | – |
| COc1cccc(-c2nnn(CC(=O)Nc3cc(OC)c(NC(=O)c4ccco4)cc3OC)n2)c1 | inconclusive: 145% | – |
| O=c1nc(-c2ccccc2)c2ccccc2[nH]1 | inconclusive: 44.1% | – |
| CCC1(CC)NC(=S)N(Nc2ccccc2)C1=O | – | inconclusive: 6510 nM [falling, single point] |
| O=C(Cc1ccccc1)Nc1c(Cl)ccc2nsnc12 | inconclusive: 1.69% | – |
| Cc1cc(S(=O)(=O)N2CCN(CC(=O)NC(C)(C#N)C3CC3)CC2)ccc1Br (stereo not given) | inconclusive | – |
| CCS(=O)(=O)NC(C)C(c1cccs1)N1CCN(C)CC1 (stereo not given) | – | inconclusive: 29100 nM [cytotoxic, single point] |
| COc1ccc(CC(=O)N/N=C(\C)c2cccs2)cc1 | – | inconclusive: 4.6 nM [activator, full curve, poor fit] |
| COc1cc(/C=N/Nc2nc(Nc3ccccc3)nc(-n3nc(C)cc3C)n2)cc(OC)c1OC | inconclusive: -26.7% | – |
| NC(=O)C1(N2CCCCC2)CCN(S(=O)(=O)c2ccc(Cl)s2)CC1 | – | inconclusive: 29100 nM [falling, single point] |
| O=C(CN1C(=O)COc2ccccc21)NCCN1CCOCC1 | – | inconclusive: 1640 nM [falling, single point] |
| C=CCn1c(=O)c2ccccc2n2c(SCc3nnc(-c4ccccc4Br)o3)nnc12 | – | inconclusive: 1030 nM [activator, partial curve] |
| C=CCn1c(SCC(=O)NC(=O)NCCC)nnc1C1CCCCC1 | inconclusive: 3.11% | – |
| O=C(C1CC1)N1N=C(c2cccc(Br)c2)CC1(O)C(F)(F)F (stereo not given) | inconclusive: 25.8% | – |
| CSc1ccccc1NC(=O)C1=CC(c2cccs2)=NS(=O)(=O)N1C | – | active: 4110 nM |
| O=C(OCC(=O)N(CCc1ccccc1)Cc1ccccc1)c1ccccc1[N+](=O)[O-] | inconclusive | – |
| COC(=O)c1cc(C(=O)NC(C)C2CC3CCC2C3)cc([N+](=O)[O-])c1 (stereo not given) | inconclusive: 64.3% | – |
| Cc1cccc(NC(=O)CSc2ncnc3nc[nH]c23)c1 | inconclusive: -5.1% | – |
| CS(=O)(=O)N(Cc1ccccc1Cl)c1ccc(C(=O)N2CCCC2)cc1 | – | inconclusive: 25900 nM [falling, single point] |
| CNC(=O)c1ccccc1Sc1ccccc1C#N | inconclusive: 13.3% | – |
| CCCn1nnnc1SCC(=O)NCc1cccs1 | – | inconclusive: 29100 nM [falling, single point] |
| CCN(c1ccccc1)S(=O)(=O)c1ccc(C(=O)NCCc2ccc(S(N)(=O)=O)cc2)cc1 | inconclusive: -77.8% | – |

Exported tab-delimited: entries from further up
SMILES	lipid storage change, negative = inhibition	Potency
COc1ccc(C(=O)NNC(=O)CSc2nnc(-c3ccc(O)cc3)n2C)cc1	inconclusive: -1.22%	–
COc1cccc(-c2nnn(CC(=O)Nc3cc(OC)c(NC(=O)c4ccco4)cc3OC)n2)c1	inconclusive: 145%	–
CCC1(CC)NC(=S)N(Nc2ccccc2)C1=O	–	inconclusive: 6510 nM [falling, single point]

(listing goes on)

| SMILES | lipid storage change, negative = inhibition | Potency |
| --- | --- | --- |
| O=C(O)CCCN1C(=O)C(=O)/C(=C(/O)c2ccc(Cl)cc2)C1c1ccccc1 (stereo not given) | inconclusive: -34.6% | – |
| CCOC(=O)CC1NCCc2c1[nH]c1ccc(OC)cc21 (stereo not given) | inconclusive: 12.4% | – |
| O=C(c1cccs1)N1CCN(c2cccc(Cl)c2)CC1 | inconclusive: -11.1% | – |
| Cc1noc(C)c1C(=O)OCC(=O)NC1CC1 | inconclusive: -16.6% | – |
| Cc1cccc(N2CCN(Cc3ccc(Br)o3)CC2)c1C | inconclusive: -24.7% | – |
| COc1ccc(/C=N/NC(=O)c2c(C)nc3ccc(Br)cn23)cc1OC | inconclusive: 15.8% | – |
| COc1ccc(CCNC(=O)CSc2nnc(-c3cccc(F)c3)o2)cc1OC | inconclusive: 16.7% | – |
| COc1ccc(-c2noc(CCC(=O)NCCc3ccccc3)n2)cc1OC | – | inconclusive: 23100 nM [activator, single point] |
| CCOC(=O)C1=C(C)OC(N)=C(C#N)C1c1ccc(OC)c(C)c1OC (stereo not given) | inconclusive: 29% | – |
| O=C(COC(=O)CNS(=O)(=O)c1ccccc1)NC12CC3CC(CC(C3)C1)C2 | inconclusive: 8.96% | – |
| CCOc1ccc(NC(=O)Nc2cccn(Cc3ccccc3)c2=O)cc1 | inconclusive: -41.9% | – |
| CCNc1cc(N2CCOCC2)nc(SC)n1 | inconclusive: 12.6% | – |
| COc1cc(CNc2ccc(N3CCCC3)cc2)ccc1OCc1ccccc1F | inconclusive: -10.2% | – |
| COc1ccc(C2NC(=O)C(C#N)=C(S)N2c2cccc(C)c2)cc1OC (stereo not given) | inconclusive: 24.5% [at 9.22 µM] | – |
| Cn1c(=O)c2c(nc(SCc3cc4c(cc3Cl)OCO4)n2C)n(C)c1=O | inconclusive: -12.2% | – |
| Cc1ccccc1NC(=O)COC(=O)Cc1ccsc1 | inconclusive: -77% | – |
| CCn1c(CN2CCN(C(=O)c3ccco3)CC2)nc2c1c(=O)n(C)c(=O)n2C | inconclusive: 13.1% | – |
| COC(=O)C1CCN(c2ccc([N+](=O)[O-])cc2)CC1 | inconclusive: 6.3% | – |
| COC(=O)c1ccc(C2/C(=C(\O)c3cccc(OC)c3)C(=O)C(=O)N2CCCN(C)C)cc1 (stereo not given) | – | inconclusive: 5.2 nM [activator, full curve, poor fit] |
| CC(=O)C1=C(O)C(=O)N(c2cccnc2)C1c1ccc(Cl)cc1 (stereo not given) | inconclusive: -0.118% | – |
| COc1ccc2nc(C)cc(SCC(=O)N/N=C/c3cccc4ccccc34)c2c1 | – | inconclusive: 29100 nM [cytotoxic, single point] |
| O=C(O)c1ccc(CSc2nnc(-c3ccncc3)n2-c2ccc(Br)cc2)cc1 | inconclusive: 23.2% | – |
| Cc1ccc(CO/N=C/c2c(O)cc(C)oc2=O)cc1 | – | inconclusive: 73.1 nM [activator, single point] |
| CCOc1ccc(N(CC(=O)N/N=C/c2cc(Br)c(C)o2)S(C)(=O)=O)cc1 | – | inconclusive: 820 nM [falling, full curve, poor fit] |
| CC(=O)N/C(=C/c1ccc(OS(=O)(=O)c2ccc(C)cc2)cc1)C(=O)Nc1ccc(C(=O)O)cc1 | inconclusive: -12.2% | – |
| NS(=O)(=O)c1ccc(NC(=S)N2CCc3ccccc32)cc1 | inconclusive: 12.4% | – |
| CCN(CC)S(=O)(=O)c1cc(NC(=O)C2=COCCO2)ccc1Cl | – | inconclusive: 580 nM [activator, single point] |

| SMILES | lipid storage change, negative = inhibition | Potency |
| --- | --- | --- |
| COc1cc(NC(=O)CSc2nnnn2Cc2ccccc2)cc(OC)c1 | inconclusive: 8.58% | – |
| CC(=O)N1CCN=C1SCc1c(F)cccc1Cl | inconclusive: 14.5% | – |
| O=C1C=C(c2cc(F)ccc2F)C[C@@H](c2ccc(Cl)cc2)C1 | inconclusive: 17.5% | – |
| COc1cccc(NC(=O)CN2CCN(c3nc(-c4cccc(OC)c4)cs3)CC2)c1 | inconclusive: -16.6% | – |
| CC(C)c1ccc(C(=O)NCCCN2CCN(CCCNC(=O)c3ccc(C(C)C)cc3)CC2)cc1 | inconclusive: -29% | – |
| CCCCCOc1ccc(C(=O)NCC2(c3ccccc3)CCOCC2)cc1 | inconclusive: 6.27% | – |
| O=C(Cc1ccc(Cl)cc1)NC1CC1 | inconclusive: -32.2% | – |
| CC(=O)Nc1ccccc1C(=O)C(=O)Nc1ccc(C)c(C)c1 | inconclusive: 4.9% | – |
| COc1cc(CNCCO)ccc1OC1CCCC1 | – | inconclusive: 5.2 nM [falling, full curve, poor fit] |
| Cc1cccc(NC(=S)NC(C)C(c2ccccc2)N2CCN(C)CC2)c1C (stereo not given) | inactive: -11.9% | – |
| CCC(=O)NC(Nc1cc(C)ccn1)(C(F)(F)F)C(F)(F)F | – | inconclusive: 2590 nM [falling, partial curve] |
| Cc1ccc2nsnc2c1N(S(C)(=O)=O)S(C)(=O)=O | – | inconclusive: 820 nM [falling, full curve] |
| Cc1sc2ncnc(SCC(=O)c3cccs3)c2c1C | – | inconclusive: 2910 nM [activator, single point] |
| Cc1ccc(S(=O)(=O)Cc2cn3cccnc3n2)cc1 | inconclusive: 10.8% | – |
| O=C(NC(=S)Nc1ccc(Br)cn1)c1cncc(Br)c1 | inconclusive: 2.34% | – |
| CCCCn1c(SCC(=O)N2CCc3ccccc32)nnc1-c1ccncc1 | inactive: -8.27% | – |
| Cc1[nH]c2ccccc2c1/C=N/NC(=O)Cc1cccs1 | inconclusive: -0.428% | – |
| C#CCn1ccc(O)c(Cc2c(F)cccc2Cl)c1=O | inconclusive: -14.2% | – |
| CC(C)(C)c1cc(C(=O)N/N=C/c2ccc(F)cc2)n(-c2ccccc2)n1 | inconclusive: 51.7% | – |
| CCOC(=O)c1c(C)oc(/N=C/c2ccccc2O)c1C#N | inconclusive: -14.8% | – |
| Cn1c2c(c(=O)n(C)c1=O)C(NC(=O)C(C)(C)C)(C(F)(F)F)C(=O)N2 (stereo not given) | inconclusive: 5.28% | – |
| CC1(C)CC(=O)C2=C(C1)N(c1ccccc1)C(=O)CC2c1ccsc1 (stereo not given) | inconclusive: 0.162% | – |
| COc1cc(S(=O)(=O)N2CCN(c3ccccc3)CC2)ccc1Cl | inconclusive: -4.78% | – |
| CC(Oc1ccc(C#N)cc1)C(=O)c1ccc(F)c(F)c1 (stereo not given) | inconclusive: 9.58% | – |
| CC1CN(C2CCN(S(=O)(=O)c3ccccc3)CC2)CC(C)O1 (stereo not given) | inconclusive: -2.21% | – |
| CCCN(C(=O)CSc1nc2ccccc2n1CC)C1CCS(=O)(=O)C1 (stereo not given) | inconclusive: -31.4% | – |

2 compounds drawn at random from those above:

| SMILES | lipid storage change, negative = inhibition | Potency |
| --- | --- | --- |
| O=C1C=C(c2cc(F)ccc2F)C[C@@H](c2ccc(Cl)cc2)C1 | inconclusive: 17.5% | – |
| CC(=O)Nc1ccccc1C(=O)C(=O)Nc1ccc(C)c(C)c1 | inconclusive: 4.9% | – |
